Laboratory results reported in publication PMC10805788.
No constants are given. Whether binding was seen depends on the method and setting. Binding seen in cells or lysates may run through a third protein. Some results given as binding are weak or reduced against the parent protein; the word gives no strength. For some assays here: Where a sequence is shown, tags or fusion partners need not be part of it.

Experiments:
[1] = biological target: T1, native rhodopsin 1 (Rh1) (Drosophila melanogaster (endogenous in fly heads)) (UniProt P06002); test: co-sedimentation; fly heads homogenised in 50 mM Tris-HCl pH 7.5, 150 mM NaCl, 100,000 x g; soluble and membrane (1% Triton X-100) fractions blotted with anti-arrestin 2 and streptavidin-HRP; flies in blue light 4 h (arrestin 2 mainly in membranes) or then red light 5 min (mainly soluble); wild type, Rh1::TbID^wt and Rh1::TbID^ninaE
T1 sequence: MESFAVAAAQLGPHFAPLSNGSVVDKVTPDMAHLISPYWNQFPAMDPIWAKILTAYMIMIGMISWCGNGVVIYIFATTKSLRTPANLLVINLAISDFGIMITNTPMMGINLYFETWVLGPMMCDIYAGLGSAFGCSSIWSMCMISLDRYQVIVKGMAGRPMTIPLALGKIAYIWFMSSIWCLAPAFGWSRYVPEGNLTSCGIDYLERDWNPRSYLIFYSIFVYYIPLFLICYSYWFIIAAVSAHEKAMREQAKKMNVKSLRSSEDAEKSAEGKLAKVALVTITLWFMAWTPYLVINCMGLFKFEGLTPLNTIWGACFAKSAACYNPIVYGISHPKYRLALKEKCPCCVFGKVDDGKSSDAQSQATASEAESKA

[2] = biological target: T2, Rh1-TurboID fusion protein (Rh1::TbID) (Drosophila melanogaster) (UniProt P06002); test: as above
T2 sequence: T1 sequence

B1: arrestin 2 (protein, UniProt P19107 1-401)
chain: MVVSVKVFKKATPNGKVTFYLGRRDFIDHIDYCDPVDGVIVVEPDYLKNRKVFGQLATTYRYGREEDEVMGVKFSKELILCREQIVPMTNPNMEMTPMQEKLVRKLGSNAYPFTFHFPPNSPSSVTLQQEGDDNGKPLGVEYTIRAFVGDSEDDRQHKRSMVSLVIKKLQYAPLNRGQRLPSSLVSKGFTFSNGKISLEVTLDREIYYHGEKTAATVQVSNNSKKSVKSIKCFIVQHTEITMVNAQFSKHVAQLETKEGCPITPGANLTKTFYLIPLAANNKDRHGIALDGHLKDEDVNLASSTMVQEGKSTGDACGIVISYSVRIKLNCGTLGGEMQTDVPFKLLQPAPGTIEKKRSNAMKKMKSIEQHRNVKGYYQDDDDNIVFEDFAKMRMNNVNMAD
- binding [1]: binds
- binding [2]: binds
